Test [1] deals with Recombinant purified TRBC2 (human). Briefly: SPR.
Test [2] concerns the target T1, Recombinant purified TRBC1 (human, UniProt P01850 1-129, limits assumed).
T1 construct: Construct not described (may be a soluble TCR carrying TRBC1); also called TCR beta constant region 1; soluble recombinant biotinylated TRBC1
The test can be described thus: SPR (Biacore T200), captured anti-TRBC2 binder, recombinant TRBC1 as analyte.

Chains of the proteins cited; added tags and fusions are not shown. Residues count along the entry.
UniProt P01850, residues 1-129: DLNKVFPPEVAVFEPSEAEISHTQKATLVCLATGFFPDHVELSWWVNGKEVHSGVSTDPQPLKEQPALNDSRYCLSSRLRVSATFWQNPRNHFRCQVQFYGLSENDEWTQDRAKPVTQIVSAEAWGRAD

The target of test [3] is Recombinant purified TRBC2 (human). The test can be described thus: SPR (Biacore T200), captured anti-TRBC2 binder, recombinant TRBC2 as analyte; concentration not printed on the sheet. On the technique in general: In SPR one partner is held on a chip, and binding of the other changes the refractive index at the surface.
The target is the same in test [4]. The test can be described thus: SPR (Biacore T200), biotinylated TRBC2 captured on a CAP chip, scFv-COMP injected; concentration not printed on the sheet [cont.) C].
For test [5] the target is unchanged. The test can be described thus: SPR (Example 6).
The target is the same in test [6]. Briefly: SPR (Biacore T200), biotinylated TRBC2 captured on a CAP chip, scFv-Fc injected; concentration not printed on the sheet [cont.) B].
In test [7] the target is T1, Recombinant purified TRBC1. Briefly: SPR (Biacore T200), biotinylated TRBC1 captured on a CAP chip, scFv-Fc injected [cont.) B].

Substitutions are numbered along the chain they refer to. Names and notes keep the numbering of the source. Results are given in words; binding and its absence hold for the method and conditions named. Some entries that bind do so weakly or less than the wild type. For some assays here: Where a sequence is shown, tags or fusion partners need not be part of it.

B1: hJovi-1 variant IgG, VH T28K, Y32F, A100N, Y102L, N103W; VL N35R (antibody, V domains shown)
VH: QVQLVQSGAEVKKPGASVKVSCKASGYKFTGFVMHWVRQAPGQGLEWMGFINPYNDDIQSNERFRGRVTMTRDTSISTAYMELSRLRSDDTAVYYCARGNGLWFDGAYRFFDFWGQGTMVTVSS
VL: DIVMTQSPLSLPVTPGEPASISCRSSQRLVHSNGRTYLHWYLQKPGQSPRLLIYRVSNRFPGVPDRFSGSGSGTDFTLKISRVEAEDVGVYYCSQSTHVPYTFGQGTKLEIK
notes: IgG format
On to B1, for which the binding entry in test [1] is listed as “binds”.

B2: hJovi-1 variant IgG, VH T28K, Y32F, A100N; VL N35R (antibody, V domains shown)
VH: B1 VH with L102Y, W103N
VL: B1 VL
notes: IgG format
As to B2, the binding result in test [1] is recorded as “binds”.

B3: hJovi-1 variant IgG, VH T28K, Y32F, A100N; VL N35F (antibody, V domains shown)
VH: B1 VH with L102Y, W103N
VL: B1 VL with R35F
notes: IgG format
As to B3, in test [1], the binding entry is “binds”.

B4: hJovi-1 variant IgG, VH V2R, T28K, Y32F, A100N; VL unmutated (antibody, V domains shown)
VH: B1 VH with V2R, L102Y, W103N
VL: B1 VL with R35N
notes: IgG format
B4: the binding entry in test [1] is listed as “binds”.

B5: hJovi-1 variant IgG, VH Y27N, T28K, Y32F, A100N; VL unmutated (antibody, V domains shown)
VH: B1 VH with Y27N, L102Y, W103N
VL: B1 VL with R35N
notes: IgG format
On to B5, for which, in test [1], the binding entry is “binds”.

B6: hJovi-1 variant IgG, VH Y27W, T28K, Y32F, A100N; VL unmutated (antibody, V domains shown)
VH: B1 VH with Y27W, L102Y, W103N
VL: B1 VL with R35N
notes: IgG format
Turning to B6, in test [1], the binding entry was “binds”.

B7: hJovi-1 variant IgG, VH T28K, Y32F, R98K, A100N; VL unmutated (antibody, V domains shown)
VH: B1 VH with R98K, L102Y, W103N
VL: B1 VL with R35N
notes: IgG format
For B7, the binding entry in test [1] is on record as “binds”.

B8: hJovi-1 variant IgG, VH Y27F, T28K, Y32F, A100N; VL unmutated (antibody, V domains shown)
VH: B1 VH with Y27F, L102Y, W103N
VL: B1 VL with R35N
notes: IgG format
Consider B8, for which the binding result in test [1] is given as “binds”.

B9: hJovi-1 variant IgG, VH T28K, Y32F, A100N; VL N35K (antibody, V domains shown)
VH: B1 VH with L102Y, W103N
VL: B1 VL with R35K
notes: IgG format
For B9, in test [1], the binding entry is “binds”.

B10: hJovi-1 variant IgG, VH V2K, T28K, Y32F, A100N; VL unmutated (antibody, V domains shown)
VH: B1 VH with V2K, L102Y, W103N
VL: B1 VL with R35N
notes: IgG format
For B10, the binding result in test [1] is “binds”.

B11: hJovi-1 variant IgG, VH T28R, Y32F, A100N; VL unmutated (antibody, V domains shown)
VH: B1 VH with K28R, L102Y, W103N
VL: B1 VL with R35N
notes: IgG format
For B11, the binding entry in test [1] is “binds”.

B12: anti-TRBC2 scFv (T28K, Y32F, A100N, Y102L, N103M in VH; N35R in VL of hJovi-1) (scFv)
scFv: QVQLVQSGAEVKKPGASVKVSCKASGYKFTGFVMHWVRQAPGQGLEWMGFINPYNDDIQSNERFRGRVTMTRDTSISTAYMELSRLRSDDTAVYYCARGNGLMFDGAYRFFDFWGQGTMVTVSSGGGGSGGGGSGGGGSDIVMTQSPLSLPVTPGEPASISCRSSQRLVHSNGRTYLHWYLQKPGQSPRLLIYRVSNRFPGVPDRFSGSGSGTDFTLKISRVEAEDVGVYYCSQSTHVPYTFGQGTKLEIKR
notes: the format in the assay is unsure
Take B12: the binding result in test [2] is reported as “no binding (tested: concentration not printed on the sheet)”; in test [3], “binds”.

B13: anti-TRBC2 scFv-COMP (T28K, Y32F, A100N, Y102L, N103M in VH; N35R in VL of hJovi-1) (other)
chain: QVQLVQSGAEVKKPGASVKVSCKASGYKFTGFVMHWVRQAPGQGLEWMGFINPYNDDIQSNERFRGRVTMTRDTSISTAYMELSRLRSDDTAVYYCARGNGLMFDGAYRFFDFWGQGTMVTVSSGGGGSGGGGSGGGGSDIVMTQSPLSLPVTPGEPASISCRSSQRLVHSNGRTYLHWYLQKPGQSPRLLIYRVSNRFPGVPDRFSGSGSGTDFTLKISRVEAEDVGVYYCSQSTHVPYTFGQGTKLEIKRSGGGGSGGGGSGGGGSAGSDLGPQMLRELQETNAALQDVRELLRQQVREITFLKNTVMECDACGSGKKDPKSGGGGSYPYDVPDYA
notes: scFv fused to the COMP coiled-coil
In the case of B13, the binding entry in test [4], in test [5] and in test [1] was “binds” each time.

B14: anti-TRBC2 scFv-Fc (T28K, Y32F, A100N, Y102L, N103M in VH; N35R in VL of hJovi-1) (Fc fusion)
chain: QVQLVQSGAEVKKPGASVKVSCKASGYKFTGFVMHWVRQAPGQGLEWMGFINPYNDDIQSNERFRGRVTMTRDTSISTAYMELSRLRSDDTAVYYCARGNGLMFDGAYRFFDFWGQGTMVTVSSGGGGSGGGGSGGGGSDIVMTQSPLSLPVTPGEPASISCRSSQRLVHSNGRTYLHWYLQKPGQSPRLLIYRVSNRFPGVPDRFSGSGSGTDFTLKISRVEAEDVGVYYCSQSTHVPYTFGQGTKLEIKRSDPRGPTIKPCPPCKCPAPNLLGGPSVFIFPPKIKDVLMISLSPIVTCVVVDVSEDDPDVQISWFVNNVEVHTAQTQTHREDYNSTLRVVSALPIQHQDWMSGKEFKCKVNNKDLPAPIERTISKPKGSVRAPQVYVLPPPEEEMTKKQVTLTCMVTDFMPEDIYVEWTNNGKTELNYKNTEPVLDSDGSYFMYSKLRVEKKNWVERNSYSCSVVHEGLHNHHTTKSFSRTPGK
notes: Multivalent format
In the case of B14, the binding entry in test [6] was “binds”; in test [7], “no binding (tested: concentration not printed on the sheet)”; in test [5], “binds”; in test [1], “binds”.
